Reference: patent publication US10040822B2, “Neuroprotective composition and method of use” (Brown University, priority 2012, dated 2018)
Some of these results come from one statement about several compounds together.

Tested on: retinal neurons
Assay: Uptake of fluorescent-tagged peptides into retinal neurons after injection into the vitreal chamber
Type: in vivo
Conditions: fluorescent-tagged peptide injected into the vitreal chamber of rat eyes
Description: Attention is drawn to the uptake into brain tissues under in vivo conditions Fluorescent-tagged R(7) (SEQ ID NO: 5) and C-s-s-CR(7) (“CR(7)” disclosed as SEQ ID NO: 8) were injected into the vitreal chamber of a rat eyes and analyzed for specific uptake into retinal neurons at multiple time points post-injection. […] At longer time points (2-4 hrs post injection) the accumulation of the labeled peptides accumulated within the cytoplasm of the majority of neurons in the inner half of the retina with preferential accumulations being localized to small membrane-bound organelles surrounding the nucleus of both ganglion cells and amacrine cells as well as in exiting ganglion cell axons.

Substance: Fluorescent-tagged R(7): Fluorescent-tagged R(7) (SEQ ID NO: 5) (RRRRRRR; fluorescent tag; MOD_RES (1)..(7) Residues may be D or L configuration)
- uptake into the retina, time following injection: ≤ 30 min
